This note sets out measurements from the supplement of paper PMC10735217.

SMILES strings stand for the structures. Where a name gives a salt, the structure may show the parent alone. The list shows a part of the results. This data set is noisy: repeats of one test often differ as much as different tests do.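 In a drug-repurposing library screen, luminescence reads luciferase driven by eight TEAD-binding elements, stably integrated into human kidney-derived cells. Compounds scoring over five robust Z scores above the plate mean are called hits.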

In the assay the test system is HEK293A TEAD-LUC reporter. The experiment in a line: TEAD-luciferase reporter activity (YAP activation), robust Z score vs plate; higher = stronger YAP/TEAD activation. The settings on record: 24 h. A general note: In a reporter assay the amount or activity of a reporter protein is the signal.

As for `Cc1cc(C)c(CN2CCCC23Cc2ccccc2CNC3=O)c(C)c1` (configuration not stated), the TEAD-luciferase reporter activity reads like this: (compound concentration: 200 nM) inactive: -1.7; (compound concentration: 10 uM) inactive: -0.87.
As to `CN(C(=O)CCCOc1ccc2c(c1)CN1CC(=O)NC1=N2)C1CCCCC1` [lixazi], the TEAD-luciferase reporter activity (compound concentration: 200 nM) was inactive: -0.79, the TEAD-luciferase reporter activity (compound concentration: 2 uM) was inactive: -1.14 and the TEAD-luciferase reporter activity (compound concentration: 10 uM) was inactive: -0.217.
As for `O=C(NCCC1CCCCC1)c1c[nH]c2ncccc12`, the TEAD-luciferase reporter activity by setting is: (compound concentration: 200 nM) inactive: 1.3; (compound concentration: 10 uM) inactive: -0.0472.
For the compound `CC(C)(C)NCC(O)c1ccc(O)c(CS(C)(=O)=O)c1` (configuration not stated), the TEAD-luciferase reporter activity (compound concentration: 200 nM) is inactive: -1.12, the TEAD-luciferase reporter activity (compound concentration: 2 uM) was inactive: -0.451 and the TEAD-luciferase reporter activity (compound concentration: 10 uM) is inactive: -0.617.
Taken in the same sequence, the figures for `CN(C)c1ccc(O)c2c1CC1CC3C(N(C)C)C(O)=C(C(N)=O)C(=O)C3(O)C(O)=C1C2=O` (configuration not stated) [minocycline, Foamix] were inactive: -0.786, inactive: -0.523 and inactive: 1.26.
On to `CN(C1CCN(c2ccc(C(=O)N3C[C@H]4CC[C@H](CC4)C3)cc2)C1)S(=O)(=O)Cc1ccccc1` (some centres not stated), for which the TEAD-luciferase reporter activity runs as follows: (compound concentration: 200 nM) inactive: 0.0101; (compound concentration: 2 uM) inactive: -1.13; (compound concentration: 10 uM) inactive: 0.416.
In the case of `O=P(O)(O)C(O)(Cn1ccnc1)P(=O)(O)O` [Zoledronic Acid (Zoledronate)], the TEAD-luciferase reporter activity was inactive: -1.35 (compound concentration: 200 nM) and inactive: -0.447 (compound concentration: 10 uM).
Consider `O=P(O)(O)C(O)(Cn1ccnc1)P(=O)(O)O` [zoledronic acid], for which, for the setting “compound concentration: 2 uM”, the TEAD-luciferase reporter activity was inactive: -2.05.
For `O=C(O)Cc1ccc(OCCNC[C@H](O)c2ccccc2)cc1` [Talibegron hydrochloride], the TEAD-luciferase reporter activity is inactive: -0.688 (compound concentration: 200 nM), inactive: -0.842 (compound concentration: 2 uM) and inactive: 1.69 (compound concentration: 10 uM).
As for `COc1cccc2c(N3CCc4ccccc4C3C)nc(Nc3ccc(F)cc3C)nc12` (configuration not stated), the TEAD-luciferase reporter activity (compound concentration: 200 nM) is inactive: -1.29, the TEAD-luciferase reporter activity (compound concentration: 2 uM) was inactive: -1.03 and the TEAD-luciferase reporter activity (compound concentration: 10 uM) was inactive: -0.529.
Taken in the same sequence, the figures for `Cc1ncc(CO)c(CN)c1O` [pyridoxamine dihydrochloride] were inactive: 1.76, inactive: -0.0193 and inactive: -1.15.
With `CCc1ccc(C[C@@H]2NC(=O)CCSCC[C@@H](C(=O)N3CCC[C@H]3C(=O)N[C@@H](CC(C)C)C(=O)NCC(N)=O)NC(=O)[C@H](CC(N)=O)NC(=O)[C@H](CCC(N)=O)NC(=O)[C@H]([C@@H](C)CC)NC2=O)cc1` [nacartocin], the TEAD-luciferase reporter activity is inactive: -0.498 (compound concentration: 200 nM), inactive: -0.672 (compound concentration: 2 uM) and inactive: -0.973 (compound concentration: 10 uM).
Taken in the same sequence, the figures for `CC(=O)N(C)Cc1c(-c2ccc(Cl)cc2)nc2ccccn12` were inactive: -0.409, inactive: -0.527 and inactive: -0.553.
Taken in the same sequence, the figures for `O=C(NC(Cc1ccc(-c2nccs2)cc1)C(=O)O)C(CS)Cc1ccccc1` (configuration not stated) were inactive: -1.24, inactive: -1.88 and inactive: 3.31.
Regarding `COCc1nnc(N2CC(Oc3ccc(F)cc3Cl)C2)n1-c1ccc(OC)nc1`, the TEAD-luciferase reporter activity runs as follows: (compound concentration: 200 nM) active: 15.9; (compound concentration: 2 uM) inactive: -0.483; (compound concentration: 10 uM) inactive: -1.41.
On the same counts, the results for `Cc1cc(OCCO)ccc1-c1cccc(COc2ccc(Cn3oc(=O)[nH]c3=O)cc2)c1` are inactive: -1.1, inactive: -0.181 and inactive: 0.256.
For `CC(C)(C)OC(=O)N[C@@H](Cc1ccccc1)[C@@H](O)C[C@@H](Cc1ccc(OCCN2CCOCC2)cc1)C(=O)N[C@H]1c2ccccc2C[C@H]1O`, the TEAD-luciferase reporter activity was inactive: 0.718 (compound concentration: 200 nM), inactive: -0.919 (compound concentration: 2 uM) and inactive: -1.84 (compound concentration: 10 uM).
Regarding `CNCC(O)c1ccc(OC(=O)C(C)(C)C)c(OC(=O)C(C)(C)C)c1` (configuration not stated) [dipivefrin], the TEAD-luciferase reporter activity is inactive: 3.09 (compound concentration: 200 nM), inactive: -1.57 (compound concentration: 2 uM) and inactive: 3.78 (compound concentration: 10 uM).
As to `CNCC(O)c1ccc(OC(=O)C(C)(C)C)c(OC(=O)C(C)(C)C)c1` (configuration not stated) [Dipivefrin Hydrochloride], under “compound concentration: 2 uM”, the TEAD-luciferase reporter activity is inactive: -0.589.
For the compound `O=C(Nc1c(Br)cc(Br)cc1CN[C@H]1CC[C@H](O)CC1)c1cccs1` [Neltenexine hydrochloride], the TEAD-luciferase reporter activity is inactive: 0.517 (compound concentration: 200 nM), inactive: -0.594 (compound concentration: 2 uM) and inactive: 0.602 (compound concentration: 10 uM).
Turning to `CNCC(=O)N[C@@H](CCCNC(=N)N)C(=O)N[C@H](C(=O)N[C@@H](Cc1ccc(O)cc1)C(=O)N[C@H](C(=O)N[C@@H](Cc1c[nH]cn1)C(=O)N1CCC[C@H]1C(=O)N[C@@H](C)C(=O)O)C(C)C)C(C)C` [saralasin, Bayer Schering], the TEAD-luciferase reporter activity reads like this: (compound concentration: 200 nM) inactive: -1.15; (compound concentration: 10 uM) inactive: -0.708.
Take `CNCC(=O)N[C@@H](CCCNC(=N)N)C(=O)N[C@H](C(=O)N[C@@H](Cc1ccc(O)cc1)C(=O)N[C@H](C(=O)N[C@@H](Cc1c[nH]cn1)C(=O)N1CCC[C@H]1C(=O)N[C@@H](C)C(=O)O)C(C)C)C(C)C` [saralasin]: the TEAD-luciferase reporter activity (compound concentration: 2 uM) is inactive: -2.23.
As to `CNc1cc2[nH]c(=O)n(-c3ccc(NC(=O)NS(=O)(=O)c4ccc(Cl)s4)cc3)c(=O)c2cc1F` [Elinogrel potassium], the TEAD-luciferase reporter activity (compound concentration: 200 nM) was inactive: -1.58, the TEAD-luciferase reporter activity (compound concentration: 2 uM) was inactive: -0.0598 and the TEAD-luciferase reporter activity (compound concentration: 10 uM) is inactive: -0.958.
For the compound `COc1nc(N)nc2c1ncn2[C@@H]1O[C@H](COP(=O)(N[C@@H](C)C(=O)OCC(C)(C)C)Oc2cccc3ccccc23)[C@@H](O)[C@@]1(C)O` (some centres not stated), the TEAD-luciferase reporter activity is inactive: -1.45 (compound concentration: 200 nM), inactive: -1.48 (compound concentration: 2 uM) and inactive: 0.327 (compound concentration: 10 uM).
